Data: the supplement of paper PMC10849652
The other results are listed elsewhere or left out.

Protein sequences, listed by entry. Tags and fused reporters are not part of them. Lines headed by an entry give the natural chain unless they say otherwise; changes in a name come on top.
UniProt Q8IYU8: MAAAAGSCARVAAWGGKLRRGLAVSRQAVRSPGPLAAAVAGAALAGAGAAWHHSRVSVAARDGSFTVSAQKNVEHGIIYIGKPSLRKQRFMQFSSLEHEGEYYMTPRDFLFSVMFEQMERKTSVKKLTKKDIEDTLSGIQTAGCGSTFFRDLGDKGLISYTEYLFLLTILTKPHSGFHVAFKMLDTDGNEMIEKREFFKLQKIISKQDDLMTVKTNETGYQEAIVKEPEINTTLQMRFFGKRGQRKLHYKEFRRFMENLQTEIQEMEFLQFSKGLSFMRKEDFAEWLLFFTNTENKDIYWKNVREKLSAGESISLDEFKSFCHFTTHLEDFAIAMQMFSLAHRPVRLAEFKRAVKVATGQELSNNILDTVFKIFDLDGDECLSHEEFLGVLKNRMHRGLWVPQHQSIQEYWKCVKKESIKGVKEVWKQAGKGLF
UniProt Q9BV20: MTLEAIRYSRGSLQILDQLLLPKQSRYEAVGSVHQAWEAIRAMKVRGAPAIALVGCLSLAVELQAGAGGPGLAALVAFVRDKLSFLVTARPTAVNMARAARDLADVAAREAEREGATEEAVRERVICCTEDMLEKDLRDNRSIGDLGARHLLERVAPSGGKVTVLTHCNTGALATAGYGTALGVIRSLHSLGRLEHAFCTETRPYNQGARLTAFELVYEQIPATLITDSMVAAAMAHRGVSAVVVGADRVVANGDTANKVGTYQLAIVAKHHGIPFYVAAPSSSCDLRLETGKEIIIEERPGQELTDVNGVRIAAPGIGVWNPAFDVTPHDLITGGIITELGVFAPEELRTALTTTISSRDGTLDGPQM
UniProt Q8N4V1: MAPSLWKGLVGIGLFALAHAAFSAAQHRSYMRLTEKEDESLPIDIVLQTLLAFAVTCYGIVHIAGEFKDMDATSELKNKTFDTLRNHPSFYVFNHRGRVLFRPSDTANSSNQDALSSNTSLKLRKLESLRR
UniProt Q9UBU8, whole entry, looked up: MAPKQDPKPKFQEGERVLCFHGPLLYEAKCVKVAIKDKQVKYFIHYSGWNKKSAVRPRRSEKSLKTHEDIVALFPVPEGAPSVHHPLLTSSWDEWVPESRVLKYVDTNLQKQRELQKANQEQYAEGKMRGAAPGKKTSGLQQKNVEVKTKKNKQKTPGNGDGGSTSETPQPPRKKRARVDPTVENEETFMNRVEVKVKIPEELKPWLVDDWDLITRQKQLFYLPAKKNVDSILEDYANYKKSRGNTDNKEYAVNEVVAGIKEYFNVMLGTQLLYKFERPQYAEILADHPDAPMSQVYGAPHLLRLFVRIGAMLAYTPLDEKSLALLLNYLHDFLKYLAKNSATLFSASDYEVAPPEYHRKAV
UniProt Q9Y3A3: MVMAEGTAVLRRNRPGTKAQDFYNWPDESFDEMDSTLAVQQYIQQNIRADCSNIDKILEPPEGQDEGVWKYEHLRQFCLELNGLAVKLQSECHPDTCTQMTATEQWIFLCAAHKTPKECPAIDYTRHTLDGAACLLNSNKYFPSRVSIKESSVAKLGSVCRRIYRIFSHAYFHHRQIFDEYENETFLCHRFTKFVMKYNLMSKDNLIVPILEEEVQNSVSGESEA
UniProt Q9H8M7: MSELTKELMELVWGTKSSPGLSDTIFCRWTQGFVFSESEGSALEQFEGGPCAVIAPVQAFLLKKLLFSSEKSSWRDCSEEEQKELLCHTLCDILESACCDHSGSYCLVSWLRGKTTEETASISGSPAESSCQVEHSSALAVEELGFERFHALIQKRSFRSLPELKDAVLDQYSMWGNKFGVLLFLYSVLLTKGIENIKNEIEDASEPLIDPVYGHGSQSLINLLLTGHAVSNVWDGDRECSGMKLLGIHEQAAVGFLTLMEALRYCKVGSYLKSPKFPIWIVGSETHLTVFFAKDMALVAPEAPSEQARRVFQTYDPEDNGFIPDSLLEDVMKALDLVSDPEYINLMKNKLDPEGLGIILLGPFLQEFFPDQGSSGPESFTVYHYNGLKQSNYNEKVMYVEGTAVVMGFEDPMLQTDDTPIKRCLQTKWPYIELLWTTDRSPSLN
UniProt P49959: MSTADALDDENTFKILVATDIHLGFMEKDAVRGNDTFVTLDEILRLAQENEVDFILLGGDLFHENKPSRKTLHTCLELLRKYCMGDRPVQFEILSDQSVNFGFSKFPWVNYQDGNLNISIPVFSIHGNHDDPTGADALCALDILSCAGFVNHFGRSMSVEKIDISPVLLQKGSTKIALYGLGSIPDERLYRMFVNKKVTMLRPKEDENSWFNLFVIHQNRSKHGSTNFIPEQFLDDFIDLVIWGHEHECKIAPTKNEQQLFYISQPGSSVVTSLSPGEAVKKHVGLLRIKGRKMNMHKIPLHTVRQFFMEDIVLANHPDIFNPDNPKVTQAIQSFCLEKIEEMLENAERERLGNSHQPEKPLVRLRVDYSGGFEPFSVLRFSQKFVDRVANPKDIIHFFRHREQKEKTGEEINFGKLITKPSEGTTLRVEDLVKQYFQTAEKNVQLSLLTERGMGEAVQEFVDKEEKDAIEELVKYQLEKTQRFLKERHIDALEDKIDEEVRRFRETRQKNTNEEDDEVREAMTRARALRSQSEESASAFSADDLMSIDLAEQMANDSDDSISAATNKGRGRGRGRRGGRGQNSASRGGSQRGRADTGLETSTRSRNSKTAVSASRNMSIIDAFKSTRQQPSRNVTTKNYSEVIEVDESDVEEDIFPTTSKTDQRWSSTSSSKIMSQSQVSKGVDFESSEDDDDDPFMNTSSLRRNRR
UniProt Q9HAP2: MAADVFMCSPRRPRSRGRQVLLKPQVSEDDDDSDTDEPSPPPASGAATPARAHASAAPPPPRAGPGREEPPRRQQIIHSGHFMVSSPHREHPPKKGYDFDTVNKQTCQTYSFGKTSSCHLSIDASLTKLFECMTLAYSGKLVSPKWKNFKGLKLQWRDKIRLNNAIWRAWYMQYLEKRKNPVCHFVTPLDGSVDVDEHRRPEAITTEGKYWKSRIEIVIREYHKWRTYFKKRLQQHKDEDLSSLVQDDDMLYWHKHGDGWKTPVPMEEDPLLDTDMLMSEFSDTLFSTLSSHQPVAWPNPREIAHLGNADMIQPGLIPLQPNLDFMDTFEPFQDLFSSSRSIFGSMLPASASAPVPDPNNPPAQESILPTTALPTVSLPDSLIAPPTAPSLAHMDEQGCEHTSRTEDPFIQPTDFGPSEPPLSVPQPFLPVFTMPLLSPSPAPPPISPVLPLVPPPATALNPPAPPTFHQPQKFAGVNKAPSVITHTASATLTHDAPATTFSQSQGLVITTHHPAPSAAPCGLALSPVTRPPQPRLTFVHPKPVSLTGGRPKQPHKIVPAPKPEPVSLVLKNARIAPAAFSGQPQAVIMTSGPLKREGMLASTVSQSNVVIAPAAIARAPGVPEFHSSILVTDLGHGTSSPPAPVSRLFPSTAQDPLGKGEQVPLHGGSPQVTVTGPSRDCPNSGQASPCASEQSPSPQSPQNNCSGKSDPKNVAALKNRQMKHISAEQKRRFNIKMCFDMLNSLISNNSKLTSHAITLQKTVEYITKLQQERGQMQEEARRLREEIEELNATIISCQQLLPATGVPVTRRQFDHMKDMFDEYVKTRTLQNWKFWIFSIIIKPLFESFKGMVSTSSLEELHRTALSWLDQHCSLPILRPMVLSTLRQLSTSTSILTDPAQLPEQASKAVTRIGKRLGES
UniProt P34949: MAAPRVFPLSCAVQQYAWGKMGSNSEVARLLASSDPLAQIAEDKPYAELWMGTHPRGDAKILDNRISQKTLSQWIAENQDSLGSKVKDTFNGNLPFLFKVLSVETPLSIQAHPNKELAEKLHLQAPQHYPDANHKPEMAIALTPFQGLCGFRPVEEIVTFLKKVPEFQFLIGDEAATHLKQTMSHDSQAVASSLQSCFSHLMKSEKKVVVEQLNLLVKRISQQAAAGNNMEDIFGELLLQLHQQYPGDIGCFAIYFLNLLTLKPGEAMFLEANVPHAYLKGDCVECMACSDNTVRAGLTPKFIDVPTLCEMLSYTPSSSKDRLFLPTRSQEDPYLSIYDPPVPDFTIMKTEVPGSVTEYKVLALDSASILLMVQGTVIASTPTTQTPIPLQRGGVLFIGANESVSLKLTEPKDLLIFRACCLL
UniProt Q8TAP9: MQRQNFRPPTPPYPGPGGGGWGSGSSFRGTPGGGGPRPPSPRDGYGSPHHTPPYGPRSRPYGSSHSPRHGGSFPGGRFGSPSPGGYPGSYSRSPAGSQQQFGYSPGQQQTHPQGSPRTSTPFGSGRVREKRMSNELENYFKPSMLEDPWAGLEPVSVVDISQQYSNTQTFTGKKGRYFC
UniProt Q13015: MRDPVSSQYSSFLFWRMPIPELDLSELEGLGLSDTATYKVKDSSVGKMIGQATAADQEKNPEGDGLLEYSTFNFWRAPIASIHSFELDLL
UniProt A9UHW6: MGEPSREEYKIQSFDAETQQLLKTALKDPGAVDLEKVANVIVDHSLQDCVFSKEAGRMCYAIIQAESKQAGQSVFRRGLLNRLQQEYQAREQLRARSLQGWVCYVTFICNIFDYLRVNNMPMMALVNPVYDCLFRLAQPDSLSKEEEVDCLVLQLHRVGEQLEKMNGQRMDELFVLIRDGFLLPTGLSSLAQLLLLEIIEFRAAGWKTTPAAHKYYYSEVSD
UniProt Q9NQG6: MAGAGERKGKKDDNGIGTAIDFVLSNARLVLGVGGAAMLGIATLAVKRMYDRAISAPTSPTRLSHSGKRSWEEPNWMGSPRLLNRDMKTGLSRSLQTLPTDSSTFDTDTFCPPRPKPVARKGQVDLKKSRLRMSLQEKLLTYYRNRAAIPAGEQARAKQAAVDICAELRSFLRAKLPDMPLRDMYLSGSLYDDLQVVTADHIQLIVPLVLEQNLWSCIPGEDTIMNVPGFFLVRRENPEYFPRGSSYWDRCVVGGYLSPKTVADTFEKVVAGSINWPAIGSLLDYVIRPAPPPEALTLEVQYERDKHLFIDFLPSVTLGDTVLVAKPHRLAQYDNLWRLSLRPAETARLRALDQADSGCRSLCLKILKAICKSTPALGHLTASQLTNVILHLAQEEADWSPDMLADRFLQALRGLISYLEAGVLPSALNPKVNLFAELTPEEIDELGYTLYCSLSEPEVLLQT
UniProt Q9NXC5: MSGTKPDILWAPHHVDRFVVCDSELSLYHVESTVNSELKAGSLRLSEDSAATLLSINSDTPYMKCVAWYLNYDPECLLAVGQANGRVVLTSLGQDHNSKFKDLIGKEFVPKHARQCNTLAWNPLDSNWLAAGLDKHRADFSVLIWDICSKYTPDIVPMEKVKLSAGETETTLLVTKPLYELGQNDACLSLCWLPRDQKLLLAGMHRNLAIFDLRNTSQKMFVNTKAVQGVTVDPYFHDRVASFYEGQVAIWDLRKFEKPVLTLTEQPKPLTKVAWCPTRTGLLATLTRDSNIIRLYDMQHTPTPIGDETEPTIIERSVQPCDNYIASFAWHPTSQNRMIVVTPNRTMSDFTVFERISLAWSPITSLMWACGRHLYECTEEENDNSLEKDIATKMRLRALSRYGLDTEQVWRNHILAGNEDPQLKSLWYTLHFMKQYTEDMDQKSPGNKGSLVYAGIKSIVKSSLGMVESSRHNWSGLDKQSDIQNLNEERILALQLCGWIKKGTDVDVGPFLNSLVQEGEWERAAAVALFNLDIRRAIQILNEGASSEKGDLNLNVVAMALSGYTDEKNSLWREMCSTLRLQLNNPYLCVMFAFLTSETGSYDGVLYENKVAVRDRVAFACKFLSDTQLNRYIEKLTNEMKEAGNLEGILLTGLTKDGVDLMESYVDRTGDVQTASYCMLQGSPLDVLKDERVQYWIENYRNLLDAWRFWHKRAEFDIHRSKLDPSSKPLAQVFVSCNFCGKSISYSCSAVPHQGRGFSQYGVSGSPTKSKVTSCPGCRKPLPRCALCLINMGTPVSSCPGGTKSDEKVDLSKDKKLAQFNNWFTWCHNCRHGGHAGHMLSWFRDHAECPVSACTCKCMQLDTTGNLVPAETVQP
UniProt Q9NZB8: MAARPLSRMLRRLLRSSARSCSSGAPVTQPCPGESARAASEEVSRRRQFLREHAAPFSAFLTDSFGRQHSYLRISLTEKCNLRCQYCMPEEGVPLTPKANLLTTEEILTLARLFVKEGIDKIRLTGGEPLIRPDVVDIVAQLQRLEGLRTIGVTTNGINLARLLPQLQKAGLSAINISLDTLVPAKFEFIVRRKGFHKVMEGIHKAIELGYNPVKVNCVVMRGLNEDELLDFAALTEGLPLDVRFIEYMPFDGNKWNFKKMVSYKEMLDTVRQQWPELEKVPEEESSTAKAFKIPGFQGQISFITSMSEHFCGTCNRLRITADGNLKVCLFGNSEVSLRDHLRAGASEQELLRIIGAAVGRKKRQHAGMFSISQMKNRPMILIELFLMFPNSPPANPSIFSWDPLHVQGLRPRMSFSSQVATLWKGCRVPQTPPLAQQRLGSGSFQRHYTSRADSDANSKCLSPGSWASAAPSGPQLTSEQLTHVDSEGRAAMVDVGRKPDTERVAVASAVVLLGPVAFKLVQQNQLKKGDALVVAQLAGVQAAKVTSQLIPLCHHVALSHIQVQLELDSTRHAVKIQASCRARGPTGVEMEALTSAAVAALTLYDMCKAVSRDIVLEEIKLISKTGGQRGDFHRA

Key:
Assay in all cases: log2 fold change, soluble protein after heating vs DMSO (PISA); higher = thermal stabilisation; K562 cells, 10 uM, 30 min; active = over 0.2 and 3.5 SD of the protein, either way, in both replicates (recomputed)
[1] = compound: CC1=C(C=C(C=C1)NC(=O)C2=CC(=CC=C2)C(C)(C)C#N)NC3=CC4=C(C=C3)N=CN(C4=O)C
Method in brief: (§1)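 Quantification of soluble protein used TMTpro 16plex LC-MS/MS, with channel sums equalised. Samples were the supernatant after 21,000xg for 90 min of pooled aliquots from K562 cells (2×10^6 cells/mL) treated with 10 μM compound for 30 min, heated for 3 min over 48°C-58°C, and extracted in PBS with 0.5% NP-40 at 4°C. Values, from duplicates, describe thermal stability against control samples on a log2 fold-change scale.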

[2] = compound: CC1=C(C=C(C=C1)NC(=O)C2=CC(=CC=C2)N(C)C)NC(=O)C3=CC=C(C=C3)O
Method in brief: as §1

[3] = compound: CC1=CC=C(C=C1)SC2=C3C=C(SC3=CN=C2)C(=O)N
Method in brief: as §1

[4] = compound: CC1=NC(=CC=C1)C2=C(N=C(N2)C(C)(C)C)C3=CC4=NC=CN=C4C=C3
Method in brief: as §1

Nexturastat A = compound: CCCCN(Cc1ccc(C(=O)NO)cc1)C(=O)Nc1ccccc1 [Nexturastat A]
Method in brief: as §1

vemurafenib = compound: CCCS(=O)(=O)Nc1ccc(F)c(C(=O)c2c[nH]c3ncc(-c4ccc(Cl)cc4)cc23)c1F [vemurafenib]
Method in brief: as §1

[5] = compound: CCCS(=O)(=O)Nc1ccc(F)c(C(=O)c2c[nH]c3ncc(Cl)cc23)c1F
Method in brief: as §1

[6] = compound: CCCc1cc(C)[nH]c(=O)c1CNC(=O)c1cc(-c2ccnc(N3CCN(C)CC3)c2)cc2c1cnn2C(C)C
Method in brief: as §1

givinostat = compound: CCN(CC)Cc1ccc2cc(COC(=O)Nc3ccc(C(=O)NO)cc3)ccc2c1 [givinostat]
Method in brief: as §1

barasertib = compound: CCN(CCCOc1ccc2c(Nc3cc(CC(=O)Nc4cccc(F)c4)[nH]n3)ncnc2c1)CCOP(=O)(O)O [barasertib]
Method in brief: as §1

Measured: log2 fold change

MRM1 (UniProt Q6IN84)
inactive: [1] 0.119 | [2] 0.043 | [3] -0.002 | [4] -0.071 | Nexturastat A 0.198 | vemurafenib -0.065 | [5] -0.106 | [6] 0.073 | givinostat -0.011 | barasertib -0.048

MICU2 (UniProt Q8IYU8)
inactive: [1] 0.022 | [2] 0.067 | [3] 0.091 | [4] 0.05 | Nexturastat A 0.198 | vemurafenib 0.053 | [5] 0.183 | [6] 0.042 | givinostat -0.009 | barasertib 0.079

MLLT1 (UniProt Q03111)
inactive: [1] -0.018 | [2] 0.064 | [3] -0.079 | [4] -0.047 | Nexturastat A 0.033 | vemurafenib 0.006 | [5] -0.033 | [6] 0.029 | givinostat 0.066 | barasertib -0.006

MIEF1 (UniProt L0R8F8)
inactive: [1] -0.007 | [2] 0.003 | [3] 0.019 | [4] -0.026 | Nexturastat A 0.092 | vemurafenib 0.079 | [5] 0.102 | [6] -0.001 | givinostat 0.006 | barasertib 0.003

MMUT (UniProt P22033)
inactive: [1] 0.025 | [2] -0.015 | [3] 0.003 | [4] 0.019 | Nexturastat A -0.093 | vemurafenib 0.024 | [5] 0 | [6] -0.038 | givinostat -0.014 | barasertib 0.032

MRI1 (UniProt Q9BV20)
inactive: [1] -0.022 | [2] -0.03 | [3] -0.008 | [4] 0.013 | Nexturastat A -0.051 | vemurafenib 0.03 | [5] 0.026 | [6] -0.037 | givinostat 0.009 | barasertib 0.019

MMGT1 isoform 2 (UniProt Q8N4V1)
inactive: [1] 0.028 | [2] 0 | [3] -0.008 | [4] 0.011 | Nexturastat A 0.004 | vemurafenib 0.025 | [5] 0.038 | [6] -0.084 | givinostat -0.009 | barasertib 0.015

MRPL35 (UniProt Q9NZE8)
inactive: [1] -0.002 | [2] -0.121 | [3] -0.065 | [4] -0.087 | Nexturastat A 0.189 | vemurafenib -0.041 | [5] -0.074 | [6] 0.02 | givinostat -0.066 | barasertib -0.053

MORF4L1 isoform 2 (UniProt Q9UBU8)
inactive: [1] -0.054 | [2] -0.025 | [3] 0 | [4] 0 | Nexturastat A 0.185 | vemurafenib -0.004 | [5] 0.01 | [6] -0.037 | givinostat -0.021 | barasertib -0.02

2 entries picked at random from the list so far:
MRM1 (UniProt Q6IN84)
inactive: [1] 0.119 | [2] 0.043 | [3] -0.002 | [4] -0.071 | Nexturastat A 0.198 | vemurafenib -0.065 | [5] -0.106 | [6] 0.073 | givinostat -0.011 | barasertib -0.048

MIEF1 (UniProt L0R8F8)
inactive: [1] -0.007 | [2] 0.003 | [3] 0.019 | [4] -0.026 | Nexturastat A 0.092 | vemurafenib 0.079 | [5] 0.102 | [6] -0.001 | givinostat 0.006 | barasertib 0.003

(further entries)

MOB4 (UniProt Q9Y3A3)
inactive: [1] 0.041 | [2] -0.023 | [3] 0.032 | [4] 0.042 | Nexturastat A -0.04 | vemurafenib -0.028 | [5] 0.031 | [6] -0.009 | givinostat -0.058 | barasertib 0.03

MINDY3 (UniProt Q9H8M7)
inactive: [1] -0.044 | [2] -0.009 | [3] -0.013 | [4] 0.039 | Nexturastat A -0.204 | vemurafenib -0.021 | [5] 0.028 | [6] 0.022 | givinostat -0.017 | barasertib 0.019

MRE11 isoform 3 (UniProt P49959)
inactive: [1] -0.02 | [2] -0.001 | [3] -0.002 | [4] 0.027 | Nexturastat A 0.006 | vemurafenib 0.007 | [5] -0.017 | [6] 0.12 | givinostat -0.047 | barasertib 0.024

MLXIP (UniProt Q9HAP2)
inactive: [1] 0.017 | [2] -0.044 | [3] 0.108 | [4] 0.061 | Nexturastat A -0.066 | vemurafenib 0.085 | [5] 0.094 | [6] 0.154 | givinostat -0.171 | barasertib -0.042

MRPL37 (UniProt Q9BZE1)
inactive: [1] 0.026 | [2] -0.047 | [3] -0.059 | [4] -0.02 | Nexturastat A 0.063 | vemurafenib -0.096 | [5] -0.024 | [6] -0.015 | givinostat 0.042 | barasertib -0.079

MKI67 (UniProt P46013)
inactive: [1] -0.041 | [2] -0.016 | [3] -0.025 | [4] -0.016 | Nexturastat A 0.154 | vemurafenib -0.067 | [5] 0.034 | [6] -0.028 | givinostat 0.09 | barasertib 0.011

MPI (UniProt P34949)
inactive: [1] -0.09 | [2] -0.013 | [3] 0.021 | [4] 0.01 | Nexturastat A -0.076 | vemurafenib 0.002 | [5] 0.01 | [6] -0.13 | givinostat -0.045 | barasertib 0.039

MRPL48 (UniProt Q96GC5)
inactive: [1] -0.016 | [2] -0.017 | [3] -0.03 | [4] -0.034 | Nexturastat A 0.102 | vemurafenib -0.092 | [5] -0.082 | [6] 0.046 | givinostat 0.014 | barasertib -0.052

MPLKIP (UniProt Q8TAP9)
inactive: [1] -0.052 | [2] -0.06 | [3] -0.048 | [4] -0.019 | Nexturastat A -0.028 | vemurafenib -0.033 | [5] -0.079 | [6] -0.294 | givinostat 0.055 | barasertib -0.073

MRPL32 (UniProt Q9BYC8)
inactive: [1] 0.032 | [2] -0.004 | [3] -0.081 | [4] -0.037 | Nexturastat A 0.174 | vemurafenib -0.112 | [5] -0.096 | [6] 0.051 | givinostat -0.065 | barasertib -0.063

MLLT11 (UniProt Q13015)
inactive: [1] -0.034 | [2] 0.026 | [3] -0.01 | [4] -0.05 | Nexturastat A -0.019 | vemurafenib 0.34 | [5] 0.145 | [6] 0.144 | givinostat 0.043 | barasertib 0.074

MIF4GD isoform 3 (UniProt A9UHW6)
inactive: [1] 0.002 | [2] -0.065 | [3] 0.053 | [4] -0.006 | Nexturastat A -0.082 | vemurafenib 0.08 | [5] -0.034 | [6] -0.034 | givinostat -0.007 | barasertib 0.074

MOGS (UniProt Q13724)
inactive: [1] -0.017 | [2] -0.007 | [3] -0.005 | [4] -0.005 | Nexturastat A -0.003 | vemurafenib -0.027 | [5] 0.008 | [6] 0.038 | givinostat 0.01 | barasertib 0.017

MRPL1 (UniProt Q9BYD6)
inactive: [1] 0.02 | [2] 0.019 | [3] -0.005 | [4] -0.016 | Nexturastat A 0.24 | vemurafenib -0.037 | [5] -0.014 | [6] 0.043 | givinostat 0.046 | barasertib 0.009

MIEF1 (UniProt Q9NQG6)
inactive: [1] 0.054 | [2] 0.009 | [3] 0.023 | [4] 0.13 | Nexturastat A -0.067 | vemurafenib -0.02 | [5] 0.019 | [6] 0.008 | givinostat -0.044 | barasertib 0.015

MRPL10 isoform 2 (UniProt Q7Z7H8)
inactive: [1] 0.105 | [2] -0.046 | [3] -0.074 | [4] -0.025 | Nexturastat A 0.116 | vemurafenib -0.091 | [5] 0.016 | [6] -0.152 | givinostat -0.089 | barasertib -0.024

MIOS (UniProt Q9NXC5)
inactive: [1] 0.031 | [2] 0.016 | [3] -0.021 | [4] -0.044 | Nexturastat A 0.132 | vemurafenib -0.024 | [5] -0.021 | [6] -0.014 | givinostat 0.008 | barasertib 0

MRPL33 (UniProt O75394)
inactive: [1] 0.107 | [2] -0.1 | [3] -0.044 | [4] 0.006 | Nexturastat A 0.197 | vemurafenib -0.003 | [5] 0.063 | [6] 0.017 | givinostat 0.012 | barasertib -0.066

MOCS1 isoform 8 (UniProt Q9NZB8)
inactive: [1] -0.051 | [2] 0.013 | [3] 0.026 | [4] -0.009 | Nexturastat A -0.082 | vemurafenib 0.022 | [5] -0.024 | [6] 0.125 | givinostat -0.036 | barasertib -0.013
